HELM strings list residues between dots; [ac] is acetyl, [am] amide, other brackets name non-standard units.
Assay: general procedure: Fmoc solid-phase peptide synthesis; TentaGel resins with a trityl-derived linker (TentaGel S Trt / TentaGel R Trt, Rapp Polymere)
Conditions: whole synthesis, λ=215 nm
In the case of H-TLYYWRASST-OH, the “final HPLC purity” value was 97%. For PEPTIDE1{I.I.T.Y.R.K.G.S.S.T}$$$$V2.0, the “final HPLC purity” value was 98%. In the case of PEPTIDE1{T.L.Y.Y.W.K.S.S.S.S}$$$$V2.0, the “final HPLC purity” value was 99%.
